The values below are quoted from earlier work in EP1056745B1, “6,9-DISUBSTITUTED 2- TRANS-(4- AMINOCYCLOHEXYL) AMINO]PURINES” (Aventis Pharmaceuticals Inc., priority 1998, dated 1999).

For the series, the system named is 60 human tumour cell lines. As to conditions: read-out: average IC50; average over 60 lines, nine tumour types; cited from earlier work.

Structures are written as SMILES.

For orientation: IC50 means the concentration that inhibits the measured activity by half. `CCC(CO)Nc1nc(NCc2ccccc2)c2ncn(C(C)C)c2n1` (stereo not shown) [Roscovitine, 2-(1-ethyl-2-hydroxyethylamino)-6-benzylamino-9-isopropylpurine]: the IC50 was 16 µM.
